PubChem BioAssay AID330 (DTP/NCI, 2004)
The list is a part of this screen's results and no random one: it is rich in T/C values a quarter to a half above the control, in often repeated tests (any T/C) and in doses without a T/C. Further doses and runs are listed elsewhere. T/C gives the treated animals as a percentage of the vehicle group. Some doses have a count of surviving animals in place of a T/C: the source files T/C as zero there, which appears to mark a toxic dose or a test without result, not a measured value. Some survivor counts are full or nearly so, which does not show that the dose was tolerated: survival well below the control is almost never listed, so the zero probably covers shortened survival too. Counts of survivors are from the toxicity check (mostly the fifth day) where no day follows; animals may have died later. Schedule codes are those of the source, read here as Q, the interval in days (D) or hours (H), X, the number of doses. Some entries hold several experiments; their values stand side by side, smallest first. For survival time, the PubChem record calls one and a half times the control and up active, and a quarter to a half above the control has no call in these data; cut-offs in other NCI protocols can differ. Some T/C values are followed by the survivors on the day toxicity was checked, most often the fifth; without a count, all were alive then.

Test system: P388 leukemia ip, CD2F1 mice, survival T/C
Assay: NCI In Vivo Anticancer Drug Screen. Data for tumor model P388 Leukemia (intraperitoneal) in CD2F1 (CDF1) mice
Details: T/C endpoint: median survival time, higher T/C = longer survival
[1] = dose: 60.0 mg/kg/injection, schedule: Q01DX005 (ip), vehicle: saline with Tween-80
[2] = dose: 240.0 mg/kg/injection, schedule: Q01DX005 (ip), vehicle: saline with Tween-80
[3] = dose: 120.0 mg/kg/injection, schedule: Q01DX005 (ip), vehicle: saline with Tween-80
[4] = dose: 400.0 mg/kg/injection, schedule: Q04DX003 (ip), vehicle: saline
[5] = dose: 100.0 mg/kg/injection, schedule: Q01DX005 (ip), vehicle: saline with Tween-80
[6] = dose: 200.0 mg/kg/injection, schedule: Q01DX005 (ip), vehicle: saline with Tween-80
[7] = dose: 400.0 mg/kg/injection, schedule: Q04DX003 (ip), vehicle: Klucel (hydroxypropylcellulose) (HPC)
[8] = dose: 200.0 mg/kg/injection, schedule: Q01DX009 (ip), vehicle: Klucel (hydroxypropylcellulose) (HPC)
[9] = dose: 200.0 mg/kg/injection, schedule: Q01DX009 (ip), vehicle: saline

**Q.** Which results are given for `CCC1CC2CN(CCc3c([nH]c4ccccc34)C(C(=O)OC)(c3cc4c(cc3OC)N(C)C3C(O)(C(=O)OC)C(OC(C)=O)C5(CC)CCCN6CCC43C65)C2)C1` (stereo unspecified)?
**A.** T/C (dose: 4.0 mg/kg/injection, schedule: Q01DX001 (ip), vehicle: water): 130 % of control; T/C (dose: 8.0 mg/kg/injection, schedule: Q01DX001 (ip), vehicle: water): 134 and 140 % of control; survivor count (dose: 64.0 mg/kg/injection, schedule: Q01DX001 (ip), vehicle: water): 0 of 6; survivor count (dose: 128.0 mg/kg/injection, schedule: Q01DX001 (ip), vehicle: water): 0 of 6

**Q.** Which results are given for `CC(O)/C(=N\Nc1ccccc1)c1nc2ccccc2[nH]c1=O` (stereo unspecified)?
**A.** survivor count [1]: 6 of 6; survivor count [2]: 5 of 6

**Q.** With `CN(C)[C](=[Au][Cl])c1ccccc1` as the compound, how does the survivor count (dose: 200.0 mg/kg/injection, schedule: Q04DX002 (ip), vehicle: Klucel (hydroxypropylcellulose) (HPC)) read?
**A.** 2 of 6

**Q.** And the survivor count (dose: 400.0 mg/kg/injection, schedule: Q04DX002 (ip), vehicle: Klucel (hydroxypropylcellulose) (HPC))?
**A.** 0 of 6

**Q.** How did the T/C [1] turn out when `C[CH2][Sn]([CH2]C)([O][P+](=O)C[Si](C)(C)c1ccccc1)[O][P+](=O)C[Si](C)(C)c1ccccc1` (stereo unspecified) was run?
**A.** 132 % of control

**Q.** What about the survivor count [3] of the same compound?
**A.** 0 of 6 and 4 of 6

**Q.** And the survivor count [2]?
**A.** 0 of 6

**Q.** For `Cn1cc/c(=N\N=c2/ccn(C)c3ccccc23)c2ccccc21`, which survivor count (dose: 200.0 mg/kg/injection, schedule: Q04DX002 (ip), vehicle: saline) is on record?
**A.** 0 of 6

**Q.** What about the survivor count (dose: 400.0 mg/kg/injection, schedule: Q04DX002 (ip), vehicle: saline) of the same compound?
**A.** 1 of 6

**Q.** How did the T/C [4] turn out when `NC(COC(c1ccccc1)(c1ccccc1)c1ccccc1)C(=O)O` (stereo unspecified) was run?
**A.** 131 % of control [5 of 6 alive]

**Q.** How did the survivor count (dose: 200.0 mg/kg/injection, schedule: Q01DX005 (ip), vehicle: saline) turn out when `OC1CC2CCC(C1)N2c1ccccc1` (stereo unspecified) was run?
**A.** 0 of 6

**Q.** How did the T/C (dose: 117.0 mg/kg/injection, schedule: Q04DX003 (ip), vehicle: saline) turn out when `Cc1cc(OCc2nc(N)nc(N)c2-c2ccc(Cl)c(Cl)c2)ccc1NS(=O)(=O)c1cccc(S(=O)(=O)F)c1` was run?
**A.** 127 % of control

**Q.** What about the T/C (dose: 264.0 mg/kg/injection, schedule: Q04DX003 (ip), vehicle: saline) of the same compound?
**A.** 127 % of control

**Q.** What does the source list for `CN(C)C(=O)On1cc(Cl)cc1C#N`?
**A.** survivor count (dose: 150.0 mg/kg/injection, schedule: Q04DX003 (ip), vehicle: Klucel (hydroxypropylcellulose) (HPC)): 0 of 6; survivor count (dose: 300.0 mg/kg/injection, schedule: Q04DX003 (ip), vehicle: Klucel (hydroxypropylcellulose) (HPC)): 0 of 6

**Q.** How did the survivor count [5] turn out when `CCCCCCCCN(CCCCCCCC)C(=N)c1ccnc2ccccc12` was run?
**A.** 0 of 5

**Q.** What about the survivor count [6] of the same compound?
**A.** 0 of 5

**Q.** What does the source list for `Cc1cc2nc3cc(C)c(N)cc3[n+](-c3ccccc3)c2cc1N`?
**A.** survivor count (dose: 25.0 mg/kg/injection, schedule: Q01DX005 (ip), vehicle: Klucel (hydroxypropylcellulose) (HPC)): 4 of 6; survivor count (dose: 50.0 mg/kg/injection, schedule: Q01DX005 (ip), vehicle: Klucel (hydroxypropylcellulose) (HPC)): 0 of 6; survivor count (dose: 100.0 mg/kg/injection, schedule: Q01DX005 (ip), vehicle: Klucel (hydroxypropylcellulose) (HPC)): 0 of 6; survivor count (dose: 200.0 mg/kg/injection, schedule: Q01DX005 (ip), vehicle: Klucel (hydroxypropylcellulose) (HPC)): 0 of 6

**Q.** What does the source list for `C[n+]1c(-c2ccc(/C=N/Nc3n[nH]c(=S)n3/N=C/c3ccc(-c4cn5ccsc5[n+]4C)cc3)cc2)cn2ccsc21`?
**A.** survivor count (dose: 3.75 mg/kg/injection, schedule: Q01DX005 (ip), vehicle: saline with Tween-80): 0 of 6; survivor count (dose: 7.5 mg/kg/injection, schedule: Q01DX005 (ip), vehicle: saline with Tween-80): 0 of 6; survivor count (dose: 15.0 mg/kg/injection, schedule: Q01DX005 (ip), vehicle: saline with Tween-80): 0 of 6; survivor count (dose: 30.0 mg/kg/injection, schedule: Q01DX005 (ip), vehicle: saline with Tween-80): 0 of 6; survivor count [1]: 0 of 6; survivor count [3]: 0 of 6; survivor count [2]: 0 of 6

**Q.** `NC(=S)c1ccccc1N=Cc1ccccn1` was tested. Which survivor count [7] did it give?
**A.** 5 of 6

**Q.** What does the source list for `Nc1nc(Cl)nc2c1ncn2C1OC(CO)C(O)C1F` (stereo unspecified)?
**A.** T/C (dose: 25.0 mg/kg/injection, schedule: Q01DX005 (ip), vehicle: saline): 131 % of control; T/C (dose: 50.0 mg/kg/injection, schedule: Q01DX005 (ip), vehicle: saline): 135 % of control; T/C (dose: 100.0 mg/kg/injection, schedule: Q01DX005 (ip), vehicle: saline): 136 and 138 % of control; survivor count (dose: 300.0 mg/kg/injection, schedule: Q01DX005 (ip), vehicle: saline): 0 of 3

**Q.** For `Cc1ccc(N)c(S)c1`, which T/C (dose: 50.0 mg/kg/injection, schedule: Q01DX009 (ip), vehicle: Klucel (hydroxypropylcellulose) (HPC)) is on record?
**A.** 130 % of control

**Q.** And the survivor count (dose: 100.0 mg/kg/injection, schedule: Q01DX009 (ip), vehicle: Klucel (hydroxypropylcellulose) (HPC))?
**A.** 6 of 6

**Q.** And the survivor count [8]?
**A.** 3 of 6

**Q.** Which results are given for `Cc1csc2c3ccccc3cc(=O)n12`?
**A.** survivor count (dose: 200.0 mg/kg/injection, schedule: Q01DX001 (ip), vehicle: Klucel (hydroxypropylcellulose) (HPC)): 1 of 6; survivor count (dose: 400.0 mg/kg/injection, schedule: Q01DX001 (ip), vehicle: Klucel (hydroxypropylcellulose) (HPC)): 0 of 6

**Q.** How did the survivor count (dose: 50.0 mg/kg/injection, schedule: Q04DX003 (ip), vehicle: Klucel (hydroxypropylcellulose) (HPC)) turn out when `C/C(=N\N=C(/[Se])N1CCC1)c1ccccn1` was run?
**A.** 6 of 6

**Q.** And the survivor count (dose: 100.0 mg/kg/injection, schedule: Q04DX003 (ip), vehicle: Klucel (hydroxypropylcellulose) (HPC))?
**A.** 0 of 6

**Q.** And the survivor count (dose: 200.0 mg/kg/injection, schedule: Q04DX003 (ip), vehicle: Klucel (hydroxypropylcellulose) (HPC))?
**A.** 0 of 6

**Q.** And the survivor count [7]?
**A.** 0 of 6

**Q.** Which survivor count (dose: 50.0 mg/kg/injection, schedule: Q01DX005 (ip), vehicle: saline with Tween-80) does the source give for `c1ccc2nc(C[n+]3cccc4ccccc43)ccc2c1` here?
**A.** 0 of 5

**Q.** What about the survivor count [5] of the same compound?
**A.** 0 of 5

**Q.** And the survivor count [6]?
**A.** 0 of 5

**Q.** For `CC1=CCC(C(C)C)C=C1` (stereo unspecified), which survivor count (dose: 200.0 mg/kg/injection, schedule: Q01DX009 (ip), vehicle: saline with Tween-80) is on record?
**A.** 5 of 6

**Q.** What about the survivor count (dose: 400.0 mg/kg/injection, schedule: Q01DX009 (ip), vehicle: saline with Tween-80) of the same compound?
**A.** 0 of 6

**Q.** For `O=C1Nc2ccccc2S/C1=C\c1ccccc1C(F)(F)F`, which survivor count [9] is on record?
**A.** 0 of 6

**Q.** `CCC#CC(=O)O` was tested. Which survivor count (dose: 100.0 mg/kg/injection, schedule: Q01DX009 (ip), vehicle: saline) did it give?
**A.** 6 of 6

**Q.** And the survivor count [9]?
**A.** 0 of 6

**Q.** Which survivor count [4] does the source give for `CCC[CH2][Sn]([F])([CH2]CCC)[O][Sn]([F])([CH2]CCC)[CH2]CCC` here?
**A.** 4 of 6

**Q.** What does the source list for `CN(C)c1c([N+](=O)[O-])cc2[nH]cnc2c1[N+](=O)[O-]`?
**A.** survivor count (dose: 12.5 mg/kg/injection, schedule: Q04DX003 (ip), vehicle: saline with Tween-80): 3 of 6; survivor count (dose: 25.0 mg/kg/injection, schedule: Q04DX003 (ip), vehicle: saline with Tween-80): 2 of 6; survivor count (dose: 50.0 mg/kg/injection, schedule: Q04DX003 (ip), vehicle: saline with Tween-80): 0 of 6; survivor count (dose: 100.0 mg/kg/injection, schedule: Q04DX003 (ip), vehicle: saline with Tween-80): 0 of 6; survivor count (dose: 200.0 mg/kg/injection, schedule: Q04DX003 (ip), vehicle: saline with Tween-80): 0 of 6; survivor count (dose: 400.0 mg/kg/injection, schedule: Q04DX003 (ip), vehicle: saline with Tween-80): 0 of 6

**Q.** `Cc1c([N+](=O)[O-])oc2c1C(=O)c1ccccc1C2=O` was tested. Which survivor count (dose: 240.0 mg/kg/injection, schedule: Q01DX005 (ip), vehicle: Klucel (hydroxypropylcellulose) (HPC)) did it give?
**A.** 0 of 6

**Q.** Which survivor count [8] does the source give for `Cc1[nH]c2c(-c3ccccc3)c3cc(Cl)ccc3nc2c1C(=O)O` here?
**A.** 6 of 6

**Q.** With `COc1ccccc1C(Nc1nncs1)Nc1nncs1` as the compound, how does the T/C [2] read?
**A.** 126 % of control

**Q.** With `COc1ccc(C(=O)c2c(C(=O)NOCCCc3ccccc3)[nH]c(=O)c(C#N)c2C(=O)NOCCCc2ccccc2)cc1` as the compound, how does the survivor count (dose: 120.0 mg/kg/injection, schedule: Q01DX005 (ip), vehicle: saline) read?
**A.** 0 of 6

**Q.** What about the survivor count (dose: 240.0 mg/kg/injection, schedule: Q01DX005 (ip), vehicle: saline) of the same compound?
**A.** 0 of 6
